The list shows a part of the results. Further columns of the screen follow, without active or inactive calls. Most of these compounds were active or inconclusive in the main read-out, so they are no random draw. Words in brackets tell the shape of the fitted curve; partial curves, single points and poor fits give uncertain potencies.
Assay: qHTS Assay for Lipid Storage Modulators in Drosophila S3 Cells;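 for cell number change: cells counted by Cell Tracker Red CMTPX staining in the red channel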
Details: BODIPY lipid droplet fluorescence, 18-24 h; for cell number change: measured here: cell count max response, cells fed with added oleic acid
Procedure, shortened: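 Drosophila S3 cells loaded with oleic acid (400 uM, as added) and compounds at several concentrations; lipid droplets imaged by 488-nm laser-scanning cytometry, 500–530 nm intensity and object ratio to cell channel. Percent activity normalized to 20 uM Triacsin C.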

[1] = measured here: cell number channel AC50, cells fed with added oleic acid
[2] = measured here: lipid fluorescence (Fed channel) AC50, cells fed with added oleic acid

| SMILES | cell number change | AC50 [1] | AC50 [2] |
| --- | --- | --- | --- |
| Nc1ccc(OCCCc2c(N)nc(N)nc2N)cc1 | -34.5% | 2.91 µM [falling, partial curve, poor fit] | 1.84 µM [falling, partial curve] |
| CC(=O)Nc1ccc(S(=O)(=O)N2CCC(c3nc4c(nnn4Cc4ccccc4Cl)c(=O)[nH]3)CC2)cc1 | -6.25% |  | 25.9 µM [rising, single point] |
| CC(NC(=O)COc1ccc(S(=O)(=O)N2CCOCC2)cc1)c1ccccc1 (centres undefined) | 22.5% | 0.461 µM [falling, single point] | 20.6 µM [rising, partial curve, poor fit] |
| Cc1ccccc1NC(=O)CCCNC(=O)c1ccc(Cl)cc1 |  |  | 29.1 µM [rising, partial curve] |
| COc1ccc(CN(Cc2cc3cc(C)ccc3[nH]c2=O)C(=O)N(C)C)cc1 | -0.644% |  | 1.84 µM [rising, full curve] |
| Cc1nc2ccccc2c(=O)n1Cc1ccc([N+](=O)[O-])cc1 | -7.87% | 0.0651 µM [rising, full curve, poor fit] |  |
| COc1cccc(C2CC(c3ccc(C(C)C)cc3)n3nc(N)nc3N2)c1 (centres undefined) | 28.4% |  | 6.51 µM [rising, single point] |
| COc1ccc(Cl)cc1NC(=O)CN(C)CC(=O)Nc1cc(OC)c(OC)c(OC)c1 | -18.5% |  | 5.8 µM [rising, partial curve] |
| O=C1CCC(=O)N1c1nc2nc(-c3ccccc3)cc(-c3ccccc3)n2n1 | 41.1% | 0.82 µM [rising, partial curve] | 0.461 µM [rising, full curve] |
| CCC(=O)c1ccc(OCC(=O)Nc2ccc(N3CCCCC3)cc2)cc1 | 2.5% |  |  |
| COc1ccc(C(=O)CSc2nnc(-c3ccc(S(=O)(=O)N4CCOCC4)cc3)o2)cc1 | -7.77% | 0.116 µM [falling, full curve, poor fit] | 0.00517 µM [falling, full curve] |
| CCOC(=O)c1cc(-c2cccc(C(F)(F)F)c2)nc2nc(SC)[nH]c(=O)c12 | 5.14% | 0.58 µM [rising, full curve, poor fit] | 0.058 µM [falling, partial curve, poor fit] |
| CCOC(=O)N1CCN(C(=O)c2ccc(Cn3c(=S)[nH]c4cc(C(=O)OC)ccc4c3=O)cc2)CC1 | 3.77% |  |  |
| CCc1nc(Nc2ccccc2F)c2oc3ccccc3c2n1 | -34.8% | 29.1 µM [falling, single point] | 29.1 µM [falling, single point] |
| CC1(C)NC(=O)N(CCCOc2ccc3c(c2)CCC3)C1=O |  |  | 0.731 µM [falling, full curve] |
| O=C(c1ccsc1)N1CCCC(N2CCN(c3cccc(Cl)c3)CC2)C1 (centres undefined) | -5.42% |  |  |
| CCOC(=O)Cc1nn(CCc2ccccn2)c(=O)c2ccccc12 | -8.14% |  | 3.66 µM [rising, partial curve] |
| Cc1cccc(C)c1NC(=O)CN(C)C(=O)CN1C(=O)NC(C)(C)C1=O | 2.59% |  |  |
| CCC(C(=O)NC1CCCC1)N(C(=O)Cn1nnc(-c2ccc(C)o2)n1)c1ccc(OC)c(OC)c1 (centres undefined) | -41% | 0.0731 µM [falling, full curve, poor fit] |  |
| OC(CNCc1ccco1)Cn1c2ccccc2c2ccccc21 (centres undefined) | 16.4% | 0.184 µM [falling, full curve, poor fit] | 29.1 µM [rising, single point] |

| SMILES | cell number change | AC50 [1] | AC50 [2] |
| --- | --- | --- | --- |
| CN(C)C(=O)C(CCN1CCC(O)(c2ccc(Cl)cc2)CC1)(c1ccccc1)c1ccccc1 | -53.9% | 16.4 µM [falling, single point] | 1.84 µM [falling, partial curve, poor fit] |
| COc1ccccc1NC(=O)Cc1noc(CSc2cc(C)c3ccccc3n2)n1 |  | 0.13 µM [rising, full curve, poor fit] | 0.411 µM [rising, full curve] |
| COC(=O)CN=Cc1c(C)[nH]n(-c2ccccc2)c1=O | 14.6% |  |  |
| CN(c1ccccc1)S(=O)(=O)c1cccc(NC(=O)Cc2c(F)cccc2Cl)c1 | 31.6% | 23.1 µM [rising, single point] | 4.11 µM [rising, single point] |
| CN(C)c1ccnc2sc(C(=O)c3ccc(Br)cc3)c(N)c12 | 147% |  |  |
| COc1ccc(N2CCN(CC(O)COc3ccc(F)cc3)CC2)cc1 (centres undefined) | -1.27% |  | 0.146 µM [falling, full curve, poor fit] |
| CCOc1cccc2sc(N(CCN(C)C)C(=O)c3ccc4ccccc4c3)nc12 |  |  | 6.51 µM [rising, single point] |
| CCN(CC)C(=O)Cn1c(=O)oc2ccccc21 | -13.5% |  | 0.231 µM [falling, full curve, poor fit] |
| COC(=O)c1ccc(COc2ccc(Cl)cc2)o1 | -13.5% | 1.64 µM [rising, partial curve, poor fit] | 4.11 µM [rising, partial curve, poor fit] |
| Cc1cccc(N2CC(C(=O)O)CC2=O)c1 (centres undefined) | -10.8% |  | 0.58 µM [falling, full curve] |
| COc1ccc(/C=C/c2c([N+](=O)[O-])c(=O)n(C)c(=O)n2C)cc1O | -16.1% |  | 0.231 µM [falling, full curve, poor fit] |
| O=c1/c(=C/c2ccco2)sc2nc(-c3ccccc3Br)nn12 | 72.1% | 29.1 µM [rising, partial curve, poor fit] |  |
| CCOC(=O)c1c(C)[nH]c2ccc(O)cc12 | 11.1% |  |  |
| Cc1cc(=O)c2c(o1)CC(C)(C)CC2=O | -43.1% | 1.3 µM [falling, full curve] | 16.4 µM [falling, partial curve] |
| Cc1nn(-c2nnc(C)c(=O)[nH]2)c(C)c1SCC(=O)Nc1ccc(F)cc1 | -154% | 16.4 µM [falling, partial curve] | 14.6 µM [falling, partial curve] |
| NC(=O)c1nsc(C(=O)N(CCCN2CCOCC2)C(C(=O)NC2CCCCC2)c2ccc(Cl)cc2)c1N (centres undefined) | -13.5% |  |  |
| O=S(=O)(NCc1ccccc1)c1ccc2ccccc2c1 | -22.6% |  | 0.13 µM [falling, full curve, poor fit] |
| Cc1cc2cc(NC(=O)c3ccco3)ccc2[nH]1 | -13.8% |  |  |
| Cc1nn(CC(=O)NCCc2ccc(Cl)cc2)c(C)c1[N+](=O)[O-] | 12.2% |  | 20.6 µM [rising, single point] |
| Cc1cccc(C(=O)NNC(=O)C2CCN(C(=O)OC(C)(C)C)CC2)c1 | 11.9% |  |  |

| SMILES | cell number change | AC50 [1] | AC50 [2] |
| --- | --- | --- | --- |
| COc1ccccc1CNC(=O)C(=O)c1cn(CC(=O)N2CCOCC2)c2ccccc12 | 9.14% |  | 3.26 µM [rising, full curve] |
| O=C(O)c1ccc(/C=N/NC(=O)c2ccc3c(c2)OCCO3)cc1 | -19.8% |  |  |
| Cc1ccc(C)c(N2C(=O)CS/C2=N\NC(=O)c2ccccc2Cl)c1 | -0.804% |  | 0.411 µM [rising, single point] |
| CCCCCCNC(=O)c1ccc(Br)o1 |  |  | 9.2 µM [rising, partial curve] |
| Cc1cccc(NC(c2ccc(C)s2)c2ccc3ccc(C)nc3c2O)n1 (centres undefined) | -39.9% | 23.1 µM [falling, single point] |  |
| CC1CCC(C(C)C)C(OCC(O)CNC(C)C)C1 (centres undefined) | -36.6% | 4.61 µM [falling, full curve] |  |
| CCOc1ccc(CCNC(=O)COC(=O)c2cccnc2SC)cc1OCC | -30.2% | 8.2 µM [falling, partial curve] | 2.31 µM [falling, full curve] |
| CCC1C(=O)N=C(SCC(=O)NC2CCCCC2)NC1=O (centres undefined) | -3.46% | 1.64 µM [falling, partial curve, poor fit] | 1.46 µM [falling, partial curve] |
| N#Cc1cc(-c2ccccc2)nc(Oc2ccc(Cl)cc2)n1 | 37.9% | 23.1 µM [rising, single point] |  |
| N#CCCN(C(=O)COC(=O)c1ccc2c(c1)OCO2)c1ccccc1 | 12.7% |  | 0.461 µM [rising, full curve] |
| CCN(CC)c1nc(Oc2ccc(C(=O)NN)cc2)nc(Oc2ccc(C(=O)NN)cc2)n1 |  | 0.82 µM [rising, single point] |  |
| CN(C)C(=S)NC1CCS(=O)(=O)C1 (centres undefined) | -32.5% | 18.4 µM [falling, single point] |  |
| NC(=O)C1CCCN(C(=O)c2ccc(-c3cccc(Cl)c3Cl)o2)C1 (centres undefined) | 49% | 13 µM [rising, partial curve, poor fit] |  |
| CCOC(=O)c1sc(Nc2cccc(Cl)c2)nc1C | -18.8% |  | 29.1 µM [falling, single point] |
| O=C(N/N=C/c1ccc(Br)cc1)c1ccc(Br)o1 | 21.3% |  | 8.2 µM [rising, partial curve, poor fit] |
| COc1ccc(NC(=S)N2CCC(NC(=O)c3ccco3)CC2)cc1 |  |  | 29.1 µM [falling, single point] |
| COc1cccc(CNC(=O)c2ccc(NC(=O)CC3SC(N4CCCC4)=NC3=O)cc2)c1 (centres undefined) | -26.1% |  | 32.6 µM [falling, single point] |
| COc1ccccc1/C=C1/SC(=O)N(CCC(=O)Nc2ccc(S(=O)(=O)Nc3nccs3)cc2)C1=O | 22% |  |  |
| O=C(CSc1nnc(C2COc3ccccc3O2)o1)NC1CCCCC1 (centres undefined) | -10.5% |  | 29.1 µM [falling, single point] |

Two compounds picked at random from the list so far, as already listed:

| SMILES | cell number change | AC50 [1] | AC50 [2] |
| --- | --- | --- | --- |
| NC(=O)C1CCCN(C(=O)c2ccc(-c3cccc(Cl)c3Cl)o2)C1 (centres undefined) | 49% | 13 µM [rising, partial curve, poor fit] |  |
| N#Cc1cc(-c2ccccc2)nc(Oc2ccc(Cl)cc2)n1 | 37.9% | 23.1 µM [rising, single point] |  |

— PubChem BioAssay AID2685 (National Center for Advancing Translational Sciences (NCATS), 2010)
